“Also recorded” adds a separate entry of the source. For at least one compound, name, drawing or mass did not settle the structure.
Test system: scce-transgenic mice
Test: Scratching behaviour (itch) in scce-transgenic mice for testing of antipruritic agents
Assay type: in vivo
Conditions: scce-transgenic mice 18-22 weeks, subcutaneous 250 μg day 0, 100 μg days 7, 14 and 21, versus saline, FIG. 7
Method: Scratching behavior of scce-transgenic (#1010) mice. Twenty one mice, (11 transgenes, 5 females; 10 wild type litter mates, 2 females) were observed every fifth day for 45 days, starting when the mice were 5-6 weeks of age. At each observation point mice were transferred to individual cages, and episodes of scratching with hind or front paws were counted during three 5-min periods with 2.5 min lapsing from the transfer to the cage to the first counting, and between counting periods. The results for the three observation periods were pooled and the number of episodes of scratching per min calculated. […]
Transgenic mice, 18-22 weeks of age, mean weight 24.2 g, were given subcutaneous injections of either 250 μg of the glucocorticoid triamcinolone acetonide in a total volume of 100 μl on day 0, and 100 μg triamcinolone acetonide in a total volume of 100 μl on days 7, 14 and 21, or 100 μl of physiological saline at the same time points. Episodes of scratching were counted in the morning and injections were given in the afternoon. […]
Transgenic mice 20-21 weeks of age, mean weight […], were given either loratidine in a total volume of 100 μl, or 100 μl of a control solution by means of tube feeding. Episodes of scratching were counted immediately before feeding (0 hours), and then at time points as indicated. […]

CC1(C)O[C@@H]2C[C@H]3[C@@H]4CCC5=CC(=O)C=C[C@]5(C)[C@@]4(F)[C@@H](O)C[C@]3(C)[C@]2(C(=O)CO)O1 [triamcinolone acetonide]
effect on itch (episodes of scratching): highly effective in relieving itch; also recorded: statistically significant difference (p<0.05) between controls and treated group
effect on itch (episodes of scratching) (listed as Triamcinolone acetonide): highly efficient in diminishing scratching
